The test has as its target E. chaffeensis TRP120 (native, in infected THP-1 cells) (E. chaffeensis (Arkansas strain)) (UniProt Q2GI62). Briefly: co-IP; Pierce Crosslink IP Kit; lysate of THP-1 cells infected with E. chaffeensis (MOI 100, 24 h); IP with TRP120-I1 or PTCH2 antibody (reverse), blot for TRP120 or PTCH2; normal rabbit IgG as control.

Chains of the proteins cited; added tags and fusions are not shown.
UniProt Q2GI62: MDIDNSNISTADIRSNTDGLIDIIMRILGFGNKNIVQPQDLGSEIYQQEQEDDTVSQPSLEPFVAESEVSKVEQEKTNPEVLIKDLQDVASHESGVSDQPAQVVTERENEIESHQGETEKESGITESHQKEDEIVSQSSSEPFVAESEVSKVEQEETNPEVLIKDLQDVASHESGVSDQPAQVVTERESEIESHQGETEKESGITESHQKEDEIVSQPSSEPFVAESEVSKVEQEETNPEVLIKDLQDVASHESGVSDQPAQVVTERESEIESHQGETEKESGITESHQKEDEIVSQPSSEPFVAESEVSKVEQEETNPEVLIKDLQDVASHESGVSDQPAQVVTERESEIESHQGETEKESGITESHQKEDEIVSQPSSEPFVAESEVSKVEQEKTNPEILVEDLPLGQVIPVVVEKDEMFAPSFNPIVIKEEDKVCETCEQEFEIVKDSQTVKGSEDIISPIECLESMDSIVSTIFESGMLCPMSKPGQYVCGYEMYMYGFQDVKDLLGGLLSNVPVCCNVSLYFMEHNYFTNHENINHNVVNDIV

Results are given in words; binding and its absence hold for the method and conditions named. Binding seen in cells or lysates may run through a third protein. Some entries that bind do so weakly or less than the wild type.

The values that follow come from PMC9135340.

B1: Patched-2 (PTCH2), endogenous in THP-1 cells (receptor, UniProt Q9Y6C5 1-1203)
chain: MTRSPPLRELPPSYTPPARTAAPQILAGSLKAPLWLRAYFQGLLFSLGCGIQRHCGKVLFLGLLAFGALALGLRMAIIETNLEQLWVEVGSRVSQELHYTKEKLGEEAAYTSQMLIQTARQEGENILTPEALGLHLQAALTASKVQVSLYGKSWDLNKICYKSGVPLIENGMIERMIEKLFPCVILTPLDCFWEGAKLQGGSAYLPGRPDIQWTNLDPEQLLEELGPFASLEGFRELLDKAQVGQAYVGRPCLHPDDLHCPPSAPNHHSRQAPNVAHELSGGCHGFSHKFMHWQEELLLGGMARDPQGELLRAEALQSTFLLMSPRQLYEHFRGDYQTHDIGWSEEQASTVLQAWQRRFVQLAQEALPENASQQIHAFSSTTLDDILHAFSEVSAARVVGGYLLMLAYACVTMLRWDCAQSQGSVGLAGVLLVALAVASGLGLCALLGITFNAATTQVLPFLALGIGVDDVFLLAHAFTEALPGTPLQERMGECLQRTGTSVVLTSINNMAAFLMAALVPIPALRAFSLQAAIVVGCTFVAVMLVFPAILSLDLRRRHCQRLDVLCCFSSPCSAQVIQILPQELGDGTVPVGIAHLTATVQAFTHCEASSQHVVTILPPQAHLVPPPSDPLGSELFSPGGSTRDLLGQEEETRQKAACKSLPCARWNLAHFARYQFAPLLLQSHAKAIVLVLFGALLGLSLYGATLVQDGLALTDVVPRGTKEHAFLSAQLRYFSLYEVALVTQGGFDYAHSQRALFDLHQRFSSLKAVLPPPATQAPRTWLHYYRNWLQGIQAAFDQDWASGRITRHSYRNGSEDGALAYKLLIQTGDAQEPLDFSQLTTRKLVDREGLIPPELFYMGLTVWVSSDPLGLAASQANFYPPPPEWLHDKYDTTGENLRIPPAQPLEFAQFPFLLRGLQKTADFVEAIEGARAACAEAGQAGVHAYPSGSPFLFWEQYLGLRRCFLLAVCILLVCTFLVCALLLLNPWTAGLIVLVLAMMTVELFGIMGFLGIKLSAIPVVILVASVGIGVEFTVHVALGFLTTQGSRNLRAAHALEHTFAPVTDGAISTLLGLLMLAGSHFDFIVRYFFAALTVLTLLGLLHGLVLLPVLLSILGPPPEVIQMYKESPEILSPPAPQGGGLRWGASSSLPQSFARVTTSMTVAIHPPPLPGAYIHPAPDEPPWSPAATSSGNLSSRGPGPATG
Turning to B1, the binding result was “binds”.
